Experimental data: PubChem BioAssay AID1347076 (National Center for Advancing Translational Sciences (NCATS), 2019)
Among all 400,000 compounds or so, about 13,000 (3.2%) were called active. Inconclusive means that the source gave no clear call. Such entries were picked first, then a sample of the others. Calls follow the shape of the dose curve; as a rule, active = well fitted cell-killing curve with a large enough effect; inconclusive = small, poorly fitted or top-dose-only effect, or effect the other way; inactive = flat fitted curve, though single readings scatter. Potencies beside an inconclusive call are fits to weak or partial responses and may not hold up.

Experiment: qHTS assay for MDR1-selective chemotherapeutics: Primary screen using the drug-selected MDR subline cells KB-V1; also: nearly all actives have a fitted effect of over 60% in size
Conditions: KB-V1 MDR cells viability, CellTiter-Glo, 72 h; activity change, negative = cytotoxicity: at 46.1 µM (top of the series)
Outline: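 Potencies derive from concentration-effect curves fitted to normalized luminescence (CellTiter-Glo) of KB-V1 cells treated for 72 h at 37 degrees C in phenol-red-free DMEM containing 10% FBS.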
% is scaled to controls: 0 for no effect and ±100 for the full control effect; potency is read from the fitted curve at half-maximal effect.

| Structure (SMILES) | activity change, negative = cytotoxicity | Potency |
| --- | --- | --- |
| CCc1ccccc1N1CC(c2nc3ccccc3n2CCCCOc2ccccc2OC)CC1=O (stereo unspecified) | inactive: 0% | – |
| Cc1cc(C)c(-c2csc(NC(=O)C3=COCCO3)n2)cc1C | – | inconclusive: 29.1 µM [cytotoxic, single point] |
| Cc1ccc(CNC(=O)NCc2ccccc2)cc1 | – | inconclusive: 29.1 µM [rising, single point] |
| Cc1csc(/C(C#N)=N/O)n1 | – | inconclusive: 29.1 µM [rising, single point] |
| COc1cc(OC)nc(Nc2nc(C(N)Cc3ccccc3)cs2)n1 (stereo unspecified) | – | inconclusive: 23.1 µM [cytotoxic, single point] |
| CCCOc1ccc(C2C(C(=O)c3cc4ccccc4o3)=C(O)C(=O)N2c2cc(C)on2)cc1 (stereo unspecified) | inactive: 12.5% | – |
| O=C1C(=Cc2ccco2)C(=O)c2ccccc21 | – | inconclusive: 29.1 µM [rising, single point] |
| COC(=O)c1ccccc1NC(=O)Nc1ncccc1C | inactive: -14.6% | – |
| Cc1cccc(-n2ncc3c2CCCC3NC(=O)c2ccc[n+]([O-])c2)c1C (stereo unspecified) | – | inconclusive: 18.4 µM [rising, single point] |
| COC(=O)Nc1ccc(S(=O)(=O)Nc2cccc3ccccc23)cc1 | – | active: 14.6 µM |
| CCc1nc2c(OCc3ccc(C(F)(F)F)cc3)cccn2c1N(C)C(=O)c1ccco1 | – | inconclusive: 4.61 µM [cytotoxic, partial curve] |
| O=C(COc1ccc2ccccc2c1)Nc1ccc(O)c(-c2nc3ccccc3o2)c1 | – | inconclusive: 20.6 µM [rising, single point] |
| COc1cc2c(cc1OC)C(COc1ccc(F)cc1)N(C(=O)C(C)C)CC2 (stereo unspecified) | – | inconclusive: 2.59 µM [cytotoxic, full curve, poor fit] |
| COc1ccc(-c2nc(=S)[nH][nH]2)cc1 | inactive: -5.25% | – |
| C=CCn1c(N)c(C(=O)NCCC2=CCCCC2)sc1=S | – | inconclusive: 23.1 µM [cytotoxic, partial curve] |
| C[C@H](CO)N1C[C@H](C)[C@@H](CN(C)S(=O)(=O)c2ccc(F)cc2)Oc2ccc(NC(=O)Nc3ccc4c(c3)OCO4)cc2C1=O | inactive: 0.0002% | – |
| Cc1cccc(N2CCN(CC(=O)NCC3CCCCC3)CC2)c1C | – | inconclusive: 20.6 µM [cytotoxic, partial curve] |
| COc1ccc(OC)c(NC(=O)Cc2nn(C)c(=O)c3ccccc23)c1 | – | inconclusive: 18.4 µM [cytotoxic, single point] |
| COc1ccc(N2c3ccccc3CN(Cc3ccccc3)CC2Cc2cc(OC)c(OC)c(OC)c2)cc1 (stereo unspecified) | inactive: -8.79% | – |
| O=C1OCCC1Sc1nc2ccccc2n1-c1ccccc1 (stereo unspecified) | – | inconclusive: 13 µM [rising, partial curve, poor fit] |
| CCN(CC)C(=O)CSc1nc(O)c(Cc2ccccc2)c(=O)n1-c1ccc(C)cc1 | inactive: 11.3% | – |
| CC(C)NC(=O)c1c(O)c2cccc3c2n(c1=O)CCC3 | inactive: -5.88% | – |
| Cc1cc(OCCCN2CCN(Cc3ccccc3)CC2)ccc1[N+](=O)[O-] | inactive: -9.82% | – |
| CCOc1ccc(CNC(=O)CCCOc2cc(=O)n(C)c3ccccc23)cc1 | – | inconclusive: 13 µM [cytotoxic, partial curve, poor fit] |

| Structure (SMILES) | activity change, negative = cytotoxicity | Potency |
| --- | --- | --- |
| CSC1=NCCN1C(=O)C(C)Oc1ccccc1 (stereo unspecified) | – | inconclusive: 29.1 µM [rising, single point] |
| N/C(=N\OC(=O)c1ccccc1Cl)c1cccc([N+](=O)[O-])c1 | inactive: -2.55% | – |
| COc1ccc(C2c3[nH]c4ccccc4c3CCN2CCCn2cccn2)c(F)c1 (stereo unspecified) | – | inconclusive: 6.51 µM [cytotoxic, partial curve] |
| Cc1cccc(N2CCN(S(=O)(=O)c3nnc(NC(=O)c4ccc(Cl)cc4)s3)CC2)c1 | – | inconclusive: 23.1 µM [rising, single point] |
| CC(=O)c1cccc(NC(=O)Cn2c(-c3cncs3)nc3ccccc32)c1 | inactive: 1.44% | – |
| CCC(C)C(=O)Nc1ccccc1N1CCN(c2ccc(F)cc2)CC1 (stereo unspecified) | – | inconclusive: 9.2 µM [cytotoxic, partial curve] |
| Cc1nc2ccccc2c2nc(NC(=O)Cc3ccccc3)nn12 | – | active: 18.4 µM |
| COc1ccccc1NC(=O)C1=C(C)Nc2nc(CCCO)nn2C1c1cccnc1 (stereo unspecified) | – | inconclusive: 23.1 µM [rising, partial curve, poor fit] |
| C=CCN1C=C2C(=O)C(C)(OC(=O)CC)C(=O)C=C2C=C1CCCC (stereo unspecified) | – | inconclusive: 11.6 µM [rising, partial curve, poor fit] |
| CC(C)(C)C(=O)O/N=C(\N)c1ccc(Oc2cc(Cl)cc(Cl)c2)c([N+](=O)[O-])c1 | – | inconclusive: 2.31 µM [rising, partial curve] |
| COc1ccccc1NC(=O)c1sc2nc(C)c(C(=O)Nc3ccc(Cl)cc3)c(-c3ccc(Br)cc3)c2c1N | – | inconclusive: 29.1 µM [cytotoxic, single point] |
| O=C(NCc1ccc(F)cc1)c1cc(C2CCCN(C(=O)C3CCCCC3)C2)on1 (stereo unspecified) | inactive: -15.7% | – |
| Cc1ccc(C)c(N2CCN(CC3CC=CCC3)CC2)c1 (stereo unspecified) | inactive: 1.73% | – |
| COc1ccccc1N1CCN(C(=O)c2cc3c(s2)-c2ccccc2OC3)CC1 | – | inactive |
| O=C(CCc1c[nH]c2ccccc12)N1CCN(c2ccc(O)cc2)CC1 | – | inconclusive: 29.1 µM [cytotoxic, single point] |
| COC(=O)C1=C(C)N(CCCC(=O)O)C(=O)NC1c1cccs1 (stereo unspecified) | – | inconclusive: 20.6 µM [rising, single point] |
| O=C(COC(=O)c1ccc(F)cc1F)Nc1cccnc1Cl | – | inconclusive: 20.6 µM [rising, single point] |
| CCc1cccc(NC(=O)C2CCCN(S(=O)(=O)c3cnc[nH]3)C2)c1 (stereo unspecified) | – | inconclusive: 29.1 µM [rising, single point] |
| CN(C)c1ccnc2sc(C(=O)NCc3ccccc3)c(N)c12 | inactive: -28.8% | – |
| O=C(c1cc(Cl)ccc1[N+](=O)[O-])n1cnc2ccccc21 | – | inconclusive: 32.6 µM [rising, single point] |
| CN[C@H]1C[C@H]2c3[nH]c4ccc(-c5ccc(OC)cc5)cc4c3CCN2C(=O)[C@H]1[C@H](C)O | – | inconclusive: 29.1 µM [cytotoxic, single point] |
| COc1cccc(/C=N/Nc2nc3ccccc3[nH]2)c1O | – | inconclusive: 2.59 µM [cytotoxic, partial curve, poor fit] |
| COc1ccc(-c2cc(C(F)(F)F)n3nc(C(=O)OC(C)C)cc3n2)cc1 | inactive: -2.22% | – |
| CN1CCN(c2nc(-c3cccs3)cc(C(F)(F)F)n2)CC1 | – | active: 16.4 µM |

| Structure (SMILES) | activity change, negative = cytotoxicity | Potency |
| --- | --- | --- |
| COc1ccc(S(=O)(=O)Nc2ccccc2OC)cc1C | – | inconclusive: 18.4 µM [cytotoxic, single point] |
| CCOc1ccc(S(=O)(=O)N2CCCC(C(=O)NCc3ccccn3)C2)cc1 (stereo unspecified) | – | inconclusive: 20.6 µM [cytotoxic, single point] |
| C=CCn1c(SCC)nc2sc3c(c2c1=O)CCc1ccccc1-3 | – | inconclusive: 20.6 µM [cytotoxic, single point] |
| Cc1ccc(NC(=O)c2cc(C)on2)cc1 | – | inconclusive: 3.26 µM [cytotoxic, partial curve, poor fit] |
| COCCN(C(=O)CCC(=O)Nc1cc(C)on1)C(C(=O)NC(C)(C)C)c1ccc(OC)cc1 (stereo unspecified) | inactive: -13.2% | – |
| O=C1NC[C@H](CCCCN2C[C@@H](Cc3ccccc3)N(Cc3ccccc3)C(=O)C2=O)N(CCC2CCCCC2)C1=O | inactive: 0% | – |
| Cc1c(C2=CCN(S(=O)(=O)c3ccc(Cl)cc3)CC2)c2ccccc2n1CC(=O)N1CCCC1 | inactive: -35.9% | – |
| O=C1N=C(N2CCC(Cc3ccccc3)CC2)S/C1=C/c1cn[nH]c1-c1ccccc1 | – | active: 23.1 µM |
| Cc1nnc2c(NC3CCCC3)nc3ccccc3n12 | – | inconclusive: 18.4 µM [cytotoxic, single point] |
| O=C(Nc1nc2ccccc2s1)Nc1ccc(F)cc1F | – | inconclusive: 18.4 µM [rising, single point] |
| COc1ccc(C(=O)N/C(=C/c2cccnc2)C(=O)N2CCN(C)CC2)cc1OC | – | inconclusive: 29.1 µM [rising, single point] |
| CS(=O)(=O)c1ccc(Cl)c(C(=O)OCC(=O)NC2CCCCCCC2)c1 | inactive: 13.6% | – |
| OC(CBr)C[n+]1cccc2cc(Br)ccc21 (stereo unspecified) | – | inconclusive: 25.9 µM [cytotoxic, partial curve, poor fit] |
| COc1ccc(C(=O)Nc2ccc(S(=O)(=O)N(C)c3ccccc3)cc2)cc1 | – | inconclusive: 18.4 µM [cytotoxic, single point] |
| COC(=O)N/N=C/c1ccc(-c2cc(Cl)ccc2Cl)o1 | – | active: 20.6 µM |
| C=CCC(NCc1ccccc1)c1ccc(Cl)cc1 (stereo unspecified) | – | inconclusive: 10.3 µM [cytotoxic, partial curve, poor fit] |
| Cc1ccccc1NC(=O)C(C)OC(=O)C1CCCO1 (stereo unspecified) | inactive: 27% | – |
| CC1CC(C)(C)NC(=S)N1CCC(=O)N1CCc2ccccc21 (stereo unspecified) | – | inconclusive: 20.6 µM [cytotoxic, single point] |
| CCN(CC)C(=O)/C=C/c1ccc(OC)c(S(=O)(=O)N2CCCCC2)c1 | – | inconclusive: 5.17 µM [cytotoxic, partial curve] |
| CCOc1ccccc1CNC(=O)C1CCN(c2nnc(C)c3c(C)n(-c4ccc(C)cc4)nc23)CC1 | – | inactive |
| CC(=O)NCc1ccc(C(=O)CCl)s1 | inactive: -20.5% | – |
| Cc1noc(C)c1S(=O)(=O)N(CC(=O)Nc1ccc2c(c1)OCO2)c1ccc(C(C)C)cc1 | – | inconclusive: 0.461 µM [cytotoxic, full curve, poor fit] |
| Cc1cccc(OCC(=O)Nc2ccc(OCc3cc(=O)n4cc(C)ccc4n3)cc2)c1 | – | inconclusive: 29.1 µM [rising, partial curve, poor fit] |

For reference, some entries already given.

| Structure (SMILES) | activity change, negative = cytotoxicity | Potency |
| --- | --- | --- |
| Cc1c(C2=CCN(S(=O)(=O)c3ccc(Cl)cc3)CC2)c2ccccc2n1CC(=O)N1CCCC1 | inactive: -35.9% | – |
| O=C1N=C(N2CCC(Cc3ccccc3)CC2)S/C1=C/c1cn[nH]c1-c1ccccc1 | – | active: 23.1 µM |
| Cc1nnc2c(NC3CCCC3)nc3ccccc3n12 | – | inconclusive: 18.4 µM [cytotoxic, single point] |
| O=C(Nc1nc2ccccc2s1)Nc1ccc(F)cc1F | – | inconclusive: 18.4 µM [rising, single point] |
| COc1ccc(C(=O)N/C(=C/c2cccnc2)C(=O)N2CCN(C)CC2)cc1OC | – | inconclusive: 29.1 µM [rising, single point] |
| CS(=O)(=O)c1ccc(Cl)c(C(=O)OCC(=O)NC2CCCCCCC2)c1 | inactive: 13.6% | – |
| OC(CBr)C[n+]1cccc2cc(Br)ccc21 (stereo unspecified) | – | inconclusive: 25.9 µM [cytotoxic, partial curve, poor fit] |
| COc1ccc(C(=O)Nc2ccc(S(=O)(=O)N(C)c3ccccc3)cc2)cc1 | – | inconclusive: 18.4 µM [cytotoxic, single point] |
| COC(=O)N/N=C/c1ccc(-c2cc(Cl)ccc2Cl)o1 | – | active: 20.6 µM |
| C=CCC(NCc1ccccc1)c1ccc(Cl)cc1 (stereo unspecified) | – | inconclusive: 10.3 µM [cytotoxic, partial curve, poor fit] |
| Cc1ccccc1NC(=O)C(C)OC(=O)C1CCCO1 (stereo unspecified) | inactive: 27% | – |
| CC1CC(C)(C)NC(=S)N1CCC(=O)N1CCc2ccccc21 (stereo unspecified) | – | inconclusive: 20.6 µM [cytotoxic, single point] |
| CCN(CC)C(=O)/C=C/c1ccc(OC)c(S(=O)(=O)N2CCCCC2)c1 | – | inconclusive: 5.17 µM [cytotoxic, partial curve] |
| CCOc1ccccc1CNC(=O)C1CCN(c2nnc(C)c3c(C)n(-c4ccc(C)cc4)nc23)CC1 | – | inactive |
| CC(=O)NCc1ccc(C(=O)CCl)s1 | inactive: -20.5% | – |
| Cc1noc(C)c1S(=O)(=O)N(CC(=O)Nc1ccc2c(c1)OCO2)c1ccc(C(C)C)cc1 | – | inconclusive: 0.461 µM [cytotoxic, full curve, poor fit] |
| Cc1cccc(OCC(=O)Nc2ccc(OCc3cc(=O)n4cc(C)ccc4n3)cc2)c1 | – | inconclusive: 29.1 µM [rising, partial curve, poor fit] |
